PubChem BioAssay AID743121 | NCATS – 2013

- Aim: 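Genes whose silencing strengthens cell killing by camptothecin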 (primary screen)
- Cells: MDA-MB-231 cells, a human breast cancer line
- Knock-down reagent: single siRNA against human genes, 20 nM siRNA (0.8 pmol per well)
- Duration: 120 h (drug added 48 h after transfection, read 72 h later)
- Challenge: camptothecin 20 nM (about EC30) for 72 h; vehicle 0.1% DMSO in parallel plates
- Measurement: 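CellTiter-Glo ATP signal, scaled to control siRNA as percent viability; sensitisation given as log2 of untreated divided by camptothecin-treated viability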
- Reading the numbers: log2 vehicle/camptothecin viability: higher = stronger sensitisation to camptothecin; viability with camptothecin and viability without drug: higher = more viable cells
- Call rule: 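Each gene scored by redundant siRNA activity (RSA) over its individual siRNA ratios; a gene is called active at p < 0.001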
Shown is an unselected part of about 26,000 reagents tested. 167 of all reagents (0.63%) were called active. 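Calls are per gene from RSA p-values that are not deposited; an individual active-marked siRNA can sensitise only weakly.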 Unmarked entries are inactive. Reagents against one gene are numbered here. Reagent sequences are not shown.

gene symbol | reagent | log2 vehicle/camptothecin viability | viability with camptothecin (% of control) | viability without drug (% of control)
CYC1 | 1 | 0.159 | 27.7 | 31
CYC1 | 2 | -0.176 | 85.4 | 75.6
CYC1 | 3 | -0.391 | 88.2 | 67.3
CYC1 | 4 | 0.0237 | 45.1 | 45.9
MGST2 | 1 | -0.566 | 76.1 | 51.4
MGST2 | 2 | -0.147 | 98.3 | 88.8
MGST2 | 3 | 0.0469 | 86.9 | 89.7
MGST2 | 4 | -0.212 | 90.6 | 78.2
BRD3 | 1 | -0.21 | 119 | 103
BRD3 | 2 | 0.0614 | 84.3 | 88
BRD3 | 3 | -0.568 | 42.1 | 28.4
BRD3 | 4 | -0.327 | 109 | 86.5
HSD11B1L | 1 | -0.321 | 97.9 | 78.3
HSD11B1L | 2 | 0.0539 | 70.1 | 72.7
HSD11B1L | 3 | -0.316 | 99.6 | 80
HSD11B1L | 4 | -0.0792 | 73.9 | 69.9
SETMAR | 1 | 0.663 | 37.1 | 58.8
SETMAR | 2 | -0.375 | 77.1 | 59.4
SETMAR | 3 | 0.191 | 69.9 | 79.9
SETMAR | 4 | -0.249 | 114 | 96.3
VN1R1 | 1 | -0.425 | 99 | 73.8
VN1R1 | 2 | -0.0819 | 73.2 | 69.1
VN1R1 | 3 | -0.213 | 61.7 | 53.2
VN1R1 | 4 | 0.622 | 39.4 | 60.6
METTL8 | 1 | -0.241 | 77.3 | 65.4
METTL8 | 2 | 0.382 | 53.9 | 70.2
METTL8 | 3 | 1.04 | 37.6 | 77.4
KCND2 | 1 | -0.547 | 79.8 | 54.6
KCND2 | 2 | 1.24 | 24.4 | 57.7
KCND2 | 3 | -0.502 | 79.8 | 56.3
KCND2 | 4 | -0.0757 | 74.9 | 71
RING1 | 1 | -0.529 | 51 | 35.4
RING1 | 2 | 0.236 | 34.4 | 40.5
RING1 | 3 | 0.19 | 3.37 | 3.84
RING1 | 4 | -0.376 | 117 | 90.2
STK40 | 1 | -0.446 | 67.6 | 49.6
STK40 | 2 | -0.0485 | 86.3 | 83.5
STK40 | 3 | -0.308 | 61.2 | 49.4
STK40 | 4 | 0.172 | 44.4 | 50.1
AIRE | 1 | -0.0819 | 41.3 | 39
AIRE | 2 | -0.172 | 71.6 | 63.6
AIRE | 3 | -0.00739 | 71.1 | 70.7
AIRE | 4 | 0.0956 | 95 | 101
LYST | 1 | -0.123 | 70.1 | 64.3
LYST | 2 | -0.388 | 104 | 79.7
LYST | 3 | -0.0802 | 103 | 97
LYST | 4 | -0.189 | 112 | 98.3
RPL27 | 1 | -0.533 | 46 | 31.8
RPL27 | 2 | -0.194 | 23.4 | 20.4
RPL27 | 3 | -0.562 | 33 | 22.4
RPL27 | 4 | -0.354 | 40.3 | 31.6
RAD50 | 1 | -0.365 | 69.8 | 54.2
RAD50 | 2 | -0.185 | 112 | 98.9
RAD50 | 3 | -0.0862 | 91.3 | 86
FPR2 | 1 | -0.72 | 93.7 | 56.9
FPR2 | 2 | -0.202 | 73.5 | 63.9
FPR2 | 3 | -0.168 | 33.7 | 30
FPR2 | 4 | -0.498 | 52.2 | 36.9
GMNN | 1 | -0.0709 | 54.5 | 51.9
GMNN | 2 | -0.152 | 95.9 | 86.3
GMNN | 3 | -0.216 | 97.2 | 83.7
GMNN | 4 | -1.05 | 32.8 | 15.8
PHPT1 | 1 | 0.301 | 43.5 | 53.6
PHPT1 | 2 | -0.0329 | 57.9 | 56.6
PHPT1 | 3 | -0.55 | 94 | 64.2
PHPT1 | 4 | -0.281 | 55.1 | 45.4
MIF | 1 | 0.176 | 80.9 | 91.4
MIF | 2 | -0.0166 | 102 | 101
MIF | 3 | 0.299 | 57.2 | 70.4
